# Assay results as given in the supplement of paper PMC12823440, “Inhibitors supercharge kinase turnover through native proteolytic circuits” (Nature, 2025).
# Amino acid sequences for entries named in this document (tags omitted). A change or cut given only in a name is not applied to a line headed by its entry.
# UniProt Q8IWU2: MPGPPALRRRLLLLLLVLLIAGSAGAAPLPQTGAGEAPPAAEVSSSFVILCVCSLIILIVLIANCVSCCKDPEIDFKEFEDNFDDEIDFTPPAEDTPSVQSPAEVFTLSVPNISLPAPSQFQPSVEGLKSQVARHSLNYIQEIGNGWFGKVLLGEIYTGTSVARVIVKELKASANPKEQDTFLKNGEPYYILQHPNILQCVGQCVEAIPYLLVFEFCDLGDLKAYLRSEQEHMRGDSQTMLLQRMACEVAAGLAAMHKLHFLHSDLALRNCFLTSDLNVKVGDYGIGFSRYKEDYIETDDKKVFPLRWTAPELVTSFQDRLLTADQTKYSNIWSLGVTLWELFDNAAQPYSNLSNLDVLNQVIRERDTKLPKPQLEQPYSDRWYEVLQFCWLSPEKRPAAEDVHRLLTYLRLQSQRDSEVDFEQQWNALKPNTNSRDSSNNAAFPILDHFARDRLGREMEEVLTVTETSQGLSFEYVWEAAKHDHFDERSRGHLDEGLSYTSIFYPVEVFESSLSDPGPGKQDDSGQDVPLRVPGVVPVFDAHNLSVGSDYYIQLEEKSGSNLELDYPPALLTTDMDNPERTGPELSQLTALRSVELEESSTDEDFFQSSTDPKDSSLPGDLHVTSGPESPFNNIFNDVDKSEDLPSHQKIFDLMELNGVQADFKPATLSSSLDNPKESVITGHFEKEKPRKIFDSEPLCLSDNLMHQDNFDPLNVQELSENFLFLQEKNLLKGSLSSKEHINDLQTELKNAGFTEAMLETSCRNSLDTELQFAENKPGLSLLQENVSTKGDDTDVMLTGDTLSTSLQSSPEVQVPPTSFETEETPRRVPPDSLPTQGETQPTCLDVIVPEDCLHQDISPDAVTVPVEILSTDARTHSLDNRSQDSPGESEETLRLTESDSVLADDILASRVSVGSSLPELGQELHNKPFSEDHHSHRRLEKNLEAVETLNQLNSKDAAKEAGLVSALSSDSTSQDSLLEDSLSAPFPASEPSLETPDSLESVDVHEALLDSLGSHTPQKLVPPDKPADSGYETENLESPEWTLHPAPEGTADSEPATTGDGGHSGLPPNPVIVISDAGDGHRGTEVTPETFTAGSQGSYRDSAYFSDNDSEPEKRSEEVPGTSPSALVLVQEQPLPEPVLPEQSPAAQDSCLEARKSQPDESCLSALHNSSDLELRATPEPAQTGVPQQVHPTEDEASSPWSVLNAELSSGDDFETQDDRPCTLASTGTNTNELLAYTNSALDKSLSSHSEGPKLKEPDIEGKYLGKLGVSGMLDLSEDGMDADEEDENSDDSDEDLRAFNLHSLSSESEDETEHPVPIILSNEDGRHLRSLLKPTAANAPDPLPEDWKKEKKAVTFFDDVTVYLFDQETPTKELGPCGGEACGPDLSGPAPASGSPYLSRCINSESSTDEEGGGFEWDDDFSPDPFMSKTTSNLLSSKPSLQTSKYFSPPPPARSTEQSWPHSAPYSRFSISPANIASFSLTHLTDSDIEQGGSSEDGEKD
# UniProt P07948: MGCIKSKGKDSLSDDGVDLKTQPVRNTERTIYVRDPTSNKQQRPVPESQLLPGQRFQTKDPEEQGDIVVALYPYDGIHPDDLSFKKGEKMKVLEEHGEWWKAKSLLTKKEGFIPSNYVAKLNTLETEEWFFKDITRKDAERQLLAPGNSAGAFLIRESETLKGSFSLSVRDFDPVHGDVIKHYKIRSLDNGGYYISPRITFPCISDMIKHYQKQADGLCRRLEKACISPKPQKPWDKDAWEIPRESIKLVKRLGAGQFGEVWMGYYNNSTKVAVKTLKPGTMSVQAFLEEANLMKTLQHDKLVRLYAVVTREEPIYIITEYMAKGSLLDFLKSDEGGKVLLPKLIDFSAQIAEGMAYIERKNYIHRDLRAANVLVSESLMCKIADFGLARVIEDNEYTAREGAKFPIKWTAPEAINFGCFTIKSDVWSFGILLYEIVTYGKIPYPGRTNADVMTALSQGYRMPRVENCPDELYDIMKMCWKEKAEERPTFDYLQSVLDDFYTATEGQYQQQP
# UniProt Q12851: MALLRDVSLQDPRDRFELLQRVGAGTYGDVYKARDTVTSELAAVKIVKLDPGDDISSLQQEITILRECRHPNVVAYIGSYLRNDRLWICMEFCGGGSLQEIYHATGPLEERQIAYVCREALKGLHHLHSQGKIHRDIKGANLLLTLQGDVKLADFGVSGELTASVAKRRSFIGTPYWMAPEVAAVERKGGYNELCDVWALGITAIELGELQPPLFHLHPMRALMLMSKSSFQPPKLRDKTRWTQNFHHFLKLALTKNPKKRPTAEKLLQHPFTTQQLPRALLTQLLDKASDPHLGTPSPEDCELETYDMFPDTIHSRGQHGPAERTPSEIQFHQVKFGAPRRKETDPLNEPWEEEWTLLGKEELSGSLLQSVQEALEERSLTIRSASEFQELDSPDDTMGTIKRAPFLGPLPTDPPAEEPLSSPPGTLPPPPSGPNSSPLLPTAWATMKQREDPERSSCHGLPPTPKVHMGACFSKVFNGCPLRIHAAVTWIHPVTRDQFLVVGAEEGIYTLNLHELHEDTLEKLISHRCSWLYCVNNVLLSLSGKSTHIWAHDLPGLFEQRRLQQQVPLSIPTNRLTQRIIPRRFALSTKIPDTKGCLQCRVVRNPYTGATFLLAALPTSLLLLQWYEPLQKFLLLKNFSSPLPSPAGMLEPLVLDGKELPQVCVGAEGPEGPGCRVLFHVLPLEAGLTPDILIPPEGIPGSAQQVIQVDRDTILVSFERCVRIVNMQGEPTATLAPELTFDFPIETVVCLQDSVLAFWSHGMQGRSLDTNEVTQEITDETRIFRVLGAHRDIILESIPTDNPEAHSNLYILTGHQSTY
# UniProt P28482, whole entry: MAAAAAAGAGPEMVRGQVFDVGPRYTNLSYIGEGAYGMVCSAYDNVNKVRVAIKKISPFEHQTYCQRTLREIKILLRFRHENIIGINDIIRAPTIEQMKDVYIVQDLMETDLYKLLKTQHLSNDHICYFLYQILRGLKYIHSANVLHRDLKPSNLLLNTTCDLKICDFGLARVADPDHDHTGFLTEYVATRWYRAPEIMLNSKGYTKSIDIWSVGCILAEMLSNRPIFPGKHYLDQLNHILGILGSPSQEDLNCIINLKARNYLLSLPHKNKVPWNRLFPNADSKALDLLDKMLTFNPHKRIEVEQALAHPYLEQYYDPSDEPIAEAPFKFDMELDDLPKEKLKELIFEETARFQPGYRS
# UniProt P31152, whole entry: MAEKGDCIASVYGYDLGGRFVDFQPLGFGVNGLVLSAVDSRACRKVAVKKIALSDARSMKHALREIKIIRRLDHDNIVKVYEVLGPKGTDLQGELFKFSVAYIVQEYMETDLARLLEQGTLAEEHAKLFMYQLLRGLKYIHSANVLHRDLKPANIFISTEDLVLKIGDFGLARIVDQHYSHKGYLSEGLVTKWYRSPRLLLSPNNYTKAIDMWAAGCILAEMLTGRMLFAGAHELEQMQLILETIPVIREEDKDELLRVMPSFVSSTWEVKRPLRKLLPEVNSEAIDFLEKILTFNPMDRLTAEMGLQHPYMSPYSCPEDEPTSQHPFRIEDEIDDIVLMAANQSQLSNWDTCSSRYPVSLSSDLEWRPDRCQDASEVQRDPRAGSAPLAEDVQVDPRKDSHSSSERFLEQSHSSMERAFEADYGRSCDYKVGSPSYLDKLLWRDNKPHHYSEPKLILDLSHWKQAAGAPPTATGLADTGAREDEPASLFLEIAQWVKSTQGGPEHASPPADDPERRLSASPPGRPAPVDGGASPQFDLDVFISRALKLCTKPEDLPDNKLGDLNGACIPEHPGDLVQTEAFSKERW
# UniProt P49137, whole entry, looked up: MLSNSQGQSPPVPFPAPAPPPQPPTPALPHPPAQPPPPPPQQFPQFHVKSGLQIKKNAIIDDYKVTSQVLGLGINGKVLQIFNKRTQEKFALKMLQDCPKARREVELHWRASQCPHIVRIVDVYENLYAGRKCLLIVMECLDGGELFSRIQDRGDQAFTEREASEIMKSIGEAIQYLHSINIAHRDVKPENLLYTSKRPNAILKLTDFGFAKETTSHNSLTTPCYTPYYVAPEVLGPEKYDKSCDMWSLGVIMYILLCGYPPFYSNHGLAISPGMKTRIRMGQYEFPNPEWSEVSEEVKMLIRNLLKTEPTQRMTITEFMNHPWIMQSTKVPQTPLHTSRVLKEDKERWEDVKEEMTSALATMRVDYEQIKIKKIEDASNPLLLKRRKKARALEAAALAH
# UniProt Q9BUB5: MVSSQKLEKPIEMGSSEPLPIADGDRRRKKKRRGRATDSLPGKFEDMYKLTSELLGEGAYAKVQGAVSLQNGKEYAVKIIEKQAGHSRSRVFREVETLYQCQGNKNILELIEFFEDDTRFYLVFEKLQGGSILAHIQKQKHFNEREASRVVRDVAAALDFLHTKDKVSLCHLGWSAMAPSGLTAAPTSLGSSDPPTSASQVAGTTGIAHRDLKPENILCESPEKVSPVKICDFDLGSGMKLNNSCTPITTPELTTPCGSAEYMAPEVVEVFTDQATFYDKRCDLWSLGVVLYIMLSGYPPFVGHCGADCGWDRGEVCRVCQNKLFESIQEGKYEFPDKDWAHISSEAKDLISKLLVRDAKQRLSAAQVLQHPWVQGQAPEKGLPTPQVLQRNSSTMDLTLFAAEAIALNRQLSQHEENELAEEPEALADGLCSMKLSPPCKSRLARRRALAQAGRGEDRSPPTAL
# UniProt Q16620, whole entry, looked up: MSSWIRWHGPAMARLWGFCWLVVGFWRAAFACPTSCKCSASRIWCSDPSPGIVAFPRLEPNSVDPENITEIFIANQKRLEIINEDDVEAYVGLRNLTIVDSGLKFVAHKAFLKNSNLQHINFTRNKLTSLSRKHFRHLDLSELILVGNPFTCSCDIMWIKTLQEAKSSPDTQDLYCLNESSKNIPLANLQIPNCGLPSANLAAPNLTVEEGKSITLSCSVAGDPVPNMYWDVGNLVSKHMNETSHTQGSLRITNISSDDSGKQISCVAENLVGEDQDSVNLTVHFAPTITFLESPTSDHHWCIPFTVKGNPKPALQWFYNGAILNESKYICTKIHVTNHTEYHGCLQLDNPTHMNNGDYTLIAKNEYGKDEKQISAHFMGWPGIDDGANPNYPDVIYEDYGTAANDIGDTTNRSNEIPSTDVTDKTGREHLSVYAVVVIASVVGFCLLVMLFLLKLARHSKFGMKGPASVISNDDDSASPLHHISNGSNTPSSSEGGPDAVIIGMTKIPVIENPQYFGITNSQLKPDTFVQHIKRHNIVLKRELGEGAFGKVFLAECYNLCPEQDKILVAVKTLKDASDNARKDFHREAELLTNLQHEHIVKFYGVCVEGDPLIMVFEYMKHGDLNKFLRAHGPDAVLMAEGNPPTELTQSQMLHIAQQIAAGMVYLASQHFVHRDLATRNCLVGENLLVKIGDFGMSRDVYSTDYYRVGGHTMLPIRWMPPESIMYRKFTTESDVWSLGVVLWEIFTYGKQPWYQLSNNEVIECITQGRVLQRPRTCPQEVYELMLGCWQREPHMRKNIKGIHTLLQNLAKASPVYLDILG
# Counter-ions that a name gives are not always drawn. The list shows a part of the results. Hit calls seldom repeat between salt and free forms of one compound.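 Kinases were expressed as nanoluciferase fusions in K562 cells and luminescence was read every 4 h between 2 and 18 h as percent of control, DMSO set to 100% and a positive control to 0%. A time point counts as decreased when the signal drops significantly (2 sigma). The hit call is the authors' own, does not follow from the count of time points alone, and its rule is not shown.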
# Experiments:
# Test in all cases: number of time points (of 5) at which kinase-Nluc abundance scored as decreased, DMSO-normalised (count); higher = more persistent destabilization
# Settings in all cases: K562; 2-18 h
# LMTK2 = LMTK2 (UniProt Q8IWU2)
# LYN = LYN (UniProt P07948)
# MAP2K1 = MAP2K1 (UniProt Q02750)
# MAP2K2 = MAP2K2 (UniProt P36507)
# MAP4K2 = MAP4K2 (UniProt Q12851)
# MAPK1 = MAPK1 (UniProt P28482)
# MAPK4 = MAPK4 (UniProt P31152)
# MAPKAPK2 = MAPKAPK2 (UniProt P49137)
# MKNK1 = MKNK1 (UniProt Q9BUB5)
# NTRK2 = NTRK2 (UniProt Q16620)
SMILES,number of time points (LMTK2),number of time points (LYN),number of time points (MAP2K1),number of time points (MAP2K2),number of time points (MAP4K2),number of time points (MAPK1),number of time points (MAPK4),number of time points (MAPKAPK2),number of time points (MKNK1),number of time points (NTRK2)
Cc1c(Br)c(Br)c2c3c1nc(N1CCNCC1)n3CCC2 [SEL120-34A (monohydrochloride)] (2.5 µM),0,0,0,0,0,0,0,0,0,0
O=S(=O)(N=Cc1c(O)ccc2ccccc12)c1cccs1 (10 µM),0,0,0,0,0,0,0,0,0,0
C=C[C@H]1[C@H](O[C@@H]2O[C@H](CO)[C@@H](O)[C@H](O)[C@H]2O)OC=C(C(=O)OC)[C@H]1CCOC(=O)c1cc(O)c(O)c(O)c1 [Cornuside] (10 µM),0,0,0,0,0,0,0,0,0,0
CC(C)(C)S(=O)(=O)c1ccc2nccc(Nc3n[nH]c4ccc(F)cc34)c2c1 (10 µM),0,0,0,0,0,0,0,0,0,0
O=C(N/N=C/c1ccc([N+](=O)[O-])o1)c1ccc(O)cc1 [Nifuroxazide] (10 µM),3,2,0,0,0,0,0,0,3,1
O=C(N=c1sccn1Cc1ccccc1)c1c[nH]c2ncccc12 (10 µM),0,0,0,0,0,0,0,0,0,0
COC(=O)/C=C/c1ccc(O)c(OC)c1 [Ferulic acid methyl ester] (10 µM),0,0,0,0,0,0,0,0,0,0
CC[C@H](C)[C@@H]1NC(=O)[C@@H]2CCCN2C(=O)[C@@H]2CCCN2C(=O)[C@@H]2CCCN2C(=O)[C@H](CC(C)C)NC(=O)CNC(=O)CNC(=O)[C@H](Cc2ccccc2)NC1=O [Heterophyllin B] (10 µM),0,0,0,0,0,0,0,0,0,0
COc1cc(Nc2nc3ccccc3nc2NS(=O)(=O)c2ccc(NC(=O)c3ccc(C)c(OC)c3)cc2)cc(OC)c1 (10 µM),0,0,0,0,0,0,0,0,0,0
CN(C/C=C/C(=O)Nc1ccc(C(=O)Nc2cccc(Nc3ncc(Cl)c(-c4c[nH]c5ccccc45)n3)c2)cc1)CCCNC(=O)NCCOCCOCCOCCNC(=O)CCCC[C@@H]1SC[C@@H]2NC(=O)N[C@@H]21 (2.5 µM),0,2,0,0,0,0,0,0,0,2
COc1cc(-c2cc(-c3cccc(O)c3)cnc2N)cc(OC)c1OC (2.5 µM),0,0,0,0,0,0,0,0,0,0
Cc1occ2c1C(=O)c1c(O)ccc(O)c1C2 (2.5 µM),0,0,0,0,0,0,0,0,0,0
COc1ccc(S(=O)(=O)N(CCO)c2ccccc2CN(C)CC=Cc2ccc(Cl)cc2)cc1 (2.5 µM),0,0,0,0,0,0,0,0,0,0
CCc1nc(C(N)=O)c(Nc2ccc(N3CCC(N4CCN(C)CC4)CC3)c(OC)c2)nc1NC1CCC(OC)CC1 (stereo not given) [EML4-ALK kinase inhibitor 1] (2.5 µM),0,0,0,0,0,0,0,0,0,0
C=CC(=O)N1CCN(c2nc(OC[C@@H]3CCCN3C)nc3c2CCN(c2cccc4cccc(C)c24)C3)C[C@@H]1CC#N (2.5 µM),0,0,0,0,0,0,0,0,0,0
O=C1NC(=O)C(c2ccccc2[N+](=O)[O-])=C1Nc1ccc(O)c(Cl)c1 (10 µM),0,0,0,0,0,0,0,0,0,0
CCN1C(C)(C)CC(Oc2ccc(C(=O)Nc3ccc(NC(=O)Nc4cc(C(C)(C)C)on4)cc3)nc2)CC1(C)C (10 µM),0,0,0,0,0,0,0,0,0,0

# Whole records as entered above. Values in the order: number of time points (LMTK2)	number of time points (LYN)	number of time points (MAP2K1)	number of time points (MAP2K2)	number of time points (MAP4K2)	number of time points (MAPK1)	number of time points (MAPK4)	number of time points (MAPKAPK2)	number of time points (MKNK1)	number of time points (NTRK2)
# COC(=O)/C=C/c1ccc(O)c(OC)c1 [Ferulic acid methyl ester] (10 µM) in the list: 0	0	0	0	0	0	0	0	0	0
# Cc1occ2c1C(=O)c1c(O)ccc(O)c1C2 (2.5 µM) in the list: 0	0	0	0	0	0	0	0	0	0

# The results go on:

SMILES,number of time points (LMTK2),number of time points (LYN),number of time points (MAP2K1),number of time points (MAP2K2),number of time points (MAP4K2),number of time points (MAPK1),number of time points (MAPK4),number of time points (MAPKAPK2),number of time points (MKNK1),number of time points (NTRK2)
CC[C@H](C)[C@H](NC(=O)[C@H](CCCCN)NC(=O)[C@H](CC(C)C)NC(=O)[C@@H]1CCCN1C(=O)[C@H](CCC(=O)O)NC(=O)[C@H](Cc1ccc(O)cc1)NC(=O)[C@@H](NC(=O)[C@H](CO)NC(=O)CNC(=O)[C@H](CO)NC(=O)[C@H](CCCN=C(N)N)NC(=O)[C@H](CCCCN)NC(=O)[C@@H](NC(=O)[C@@H](N)CCCN=C(N)N)[C@@H](C)O)C(C)C)C(=O)O [Malantide] (10 µM),0,0,0,0,0,0,0,0,0,0
CNCCOc1ccccc1C(C)(C)Nc1nccn(-c2cc(C(=O)NC3CC3)ccc2C)c1=O [p38α inhibitor 2] (10 µM),0,0,0,0,0,0,0,0,0,0
Cc1cc(/C=C2\CC/C(=C\c3cc(C)c(O)c(C)c3)C2=O)cc(C)c1O [Pentagamavunon-1] (2.5 µM),0,0,0,0,0,2,0,0,0,0
Cn1c(=O)c(Oc2ccc(F)cc2F)cc2cnc(NC(CCO)CCO)nc21 [Pamapimod] (10 µM),0,0,0,0,0,0,0,0,0,0
CC(=O)NCC(=O)N[C@@H](C)C(=O)N[C@@H](CCC(N)=O)C(=O)N[C@@H](Cc1ccccc1)C(=O)N[C@@H](CO)C(=O)N[C@@H](CCCCN)C(=O)N[C@H](C(=O)N[C@@H](C)C(=O)N[C@@H](C)C(=O)N[C@@H](CCCCN)C(=O)O)[C@@H](C)O (10 µM),0,0,0,0,0,0,0,0,0,0
CC(C)(O)c1cc2nc(-c3cnc(N)nc3)nc(N3CCOCC3)c2s1 (2.5 µM),0,0,0,0,0,0,0,0,0,0
Oc1ccc2ccccc2c1SSc1c(O)ccc2ccccc12 (10 µM),0,0,0,0,0,0,0,0,0,0
Cc1cc([N+](=O)[O-])c(NS(=O)(=O)c2cccc(C(=O)O)c2)cc1-c1cccnc1 [Alofanib] (10 µM),0,0,0,0,0,0,0,0,0,0
CC(C)(C)S(=O)(=O)c1cc2c(Nc3ccc4scnc4c3)ccnc2cc1OCCOCCOCCOCCOCC(=O)Nc1cccc2c1CN(C1CCC(=O)NC1=O)C2=O (stereo not given) [PROTAC RIPK degrader-6] (10 µM),0,0,0,0,0,0,0,0,0,0
COc1cc(/C=C/c2ccc(NC(=O)/C=C/c3cc(OC)c(OC)c(OC)c3)cc2)cc(OC)c1 (2.5 µM),0,0,0,0,0,0,0,0,0,0
CC1=C(C(=O)Nc2ccc3[nH]ncc3c2)C(c2ccc(F)c(C(=O)NCc3ccccn3)c2)NC(=O)N1 (stereo not given) (10 µM),0,0,0,0,0,0,0,0,0,0
Cn1cc(-c2ccc3ncc(Cc4ccc5ncccc5c4)n3n2)cn1 (10 µM),0,0,0,0,0,0,0,0,0,0
O=S(=O)(c1cccc2c(Cl)cccc12)N1CCCNCC1 (10 µM),0,0,0,0,0,0,0,0,0,0
CN(C)C(=O)c1cc2cnc(Nc3ccc(NC(=O)C4(C(=O)Nc5ccc(F)cc5)CC4)cc3)nc2n1C1CCCC1 (2 µM),0,0,0,0,0,0,0,0,0,0
NC(=O)c1nc(-c2c(F)cccc2Cl)oc1Nc1ccc(C(=O)N2CCOCC2)cc1 (10 µM),0,0,0,0,0,0,0,0,0,0
O=C(O)/C=C/c1cc(Br)c(Br)c(Br)c1Br (10 µM),0,0,0,0,0,0,0,0,0,0
